The text below walks through data of the supplement of paper PMC11150407.

As usually defined, the cell viability is a read-out of living cells in per cent, often relative to untreated cells.

The structures appear in SMILES notation. About 45 (2%) of roughly 3,000 compounds showed an effect of 50% or more. Some of the results follow.

In this experiment the test system is MOLM1 and UCSD/AML1 (averaged). Description: cell viability relative to DMSO control (POC); higher = less growth inhibition. Conditions: 1 µM; 72 h. The procedure: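 Primary viability screen in the 3q26 EVI1-high AML cell lines MOLM1 and UCSD/AML1, compounds at 1 uM for 72 h. ATP CellTiter-Glo read-out given as percent viable over DMSO control (POC), averaged over duplicates. This mapping covers the TimTec NDL-3000 natural derivative library, whose compounds are identified by TimTec catalogue codes (ST...).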
Take `COc1cc(C(=O)NCc2cccnc2)ccc1OCc1ccc(Cl)cc1`: the cell viability was determined as 89.2%.

With `O=C1OC2C3CC(C2Sc2ccc([N+](=O)[O-])cc2)C(C(=O)O)C13` (stereo not drawn), the cell viability amounted to 93.4%.

As to `CCCNC(=O)c1cc(=O)n(CC(=O)Nc2cccc(C)c2C)c2ccccc12`, the cell viability was determined as 100%.

`COc1ccc(C(=O)Nc2sc3c(c2C(=O)OC(C)C)CCCC3)cc1OC`: the cell viability turned out to be 97.2%.

Take `CC(=O)OC1CCC2(C)C(CCC3(C)C2C(=O)C=C2C4CC(C)(C(=O)Nc5ccc(Cl)c(Cl)c5)CCC4(C)CCC23C)C1(C)C` (stereo not drawn): the cell viability was determined as 104%.

As for `CCOC(=O)c1sc(N2N=C(C)/C(=C\c3ccc4c(c3)OCO4)C2=O)nc1C`, the cell viability amounted to 86.8%.

Take `COc1ccc(/C=C/C(=O)c2ccc(NC(C)=O)cc2)cc1OC`: the cell viability worked out at 89.8%.

Take `O=C(O)/C=C/c1ccc(S(=O)(=O)N2CCCC2)cc1`: the cell viability came to 101%.

In the case of `CCc1c(-c2ccccc2)n(-c2cccc(Cl)c2)c2nc3c(c(=O)n(C)c(=O)n3C)n12`, the cell viability amounted to 97.4%.

Regarding `CC(C)c1ccc(/C=C/C(=O)N2CCC3(O)CCCCC3C2c2ccc(F)cc2)cc1` (stereo not drawn), the cell viability is 77.9%.

As for `O=c1oc2cc(O)ccc2cc1-c1cccc(Cl)c1`, the cell viability worked out at 96.1%.

For the molecule `O=C(Nc1c(C(=O)Nc2ccccc2)c2ccccc2[nH]c1=O)c1ccccc1`, the cell viability stood at 99.5%.

As for `Cc1ccc(-n2c(SCC(=O)Nc3cccc(C)c3C)nc3c(=O)[nH]cnc32)cc1`, the cell viability came to 97.8%.

Regarding `O=C(O)CNC(=O)c1cccc(F)c1`, the cell viability came to 110%.

`CCCCOc1ccc(C2=NOC(=O)/C2=C\c2cccc([N+](=O)[O-])c2O)cc1`: the cell viability stood at 107%.

As to `COc1ccc(-c2nc(CSc3nc4c(=O)[nH]cnc4n3-c3ccc(C)cc3)c(C)o2)cc1OC`, the cell viability was found to be 111%.

For the molecule `COc1cc(C2C3CCCCC3(O)CCN2Cc2ccccc2Cl)ccc1O` (stereo not drawn), the cell viability was 97.2%.

Turning to `COc1ccc2c(c1)c(CC(=O)NCc1cc(OC)c(OC)c(OC)c1)c(C)n2C(=O)c1ccc(Cl)cc1`, the cell viability amounted to 99%.

With `O=C(CSc1nc2ccccc2c(=O)[nH]1)Nc1ccc(F)cc1`, the cell viability turned out to be 93.9%.

`CCOc1ccccc1NC(=O)CSc1nc2ccccc2c(=O)[nH]1`: the cell viability was 101%.

In the case of `CCN(CC)c1ccc2[nH]c3c(C(N)=O)cc(=O)c(=O)c=3oc2c1`, the cell viability amounted to 3.99%.

For `CCCC(=O)Oc1ccc2c(C)cc(=O)oc2c1`, the cell viability worked out at 93%.

Take `CCc1cccc2c(CCNC(=O)c3ccccc3OC)c(C)[nH]c12`: the cell viability was determined as 101%.

For `O=[N+]([O-])c1cc(NC2CC(O)C(O)CO2)cc(Sc2ccccc2)c1` (stereo not drawn), the cell viability amounted to 93.6%.

For `Nc1[nH]c(=O)nc2nc[nH]c12`, the cell viability amounted to 99%.

On to `O=C(/C=C/c1ccccc1)c1ccc(O)cc1O`, for which the cell viability is 96.7%.

As to `COc1cc(C2C3CCCCC3(O)CCN2CC(=O)Nc2cccc3ccccc23)ccc1O` (stereo not drawn), the cell viability was 100%.

For the molecule `COC(=O)C(CCCCNC(=O)c1ccc([N+](=O)[O-])cc1)NC(=O)c1ccc([N+](=O)[O-])cc1` (stereo not drawn), the cell viability stood at 92.6%.
